The record followed here is patent publication US8715706B2, “Methods and devices for delivery of pharmaceutical agents within orifices of the body” (RDD Pharma, Ltd., priority 2009, dated 2014).

The nature of the series: pK studies, rectal rate of absorption using drug release system. The note with it: rectally, drug release system of Example 1, FIGS. 14 and 15. The text has this: Accordingly, it is intended to embrace all such alternatives, modifications and variations that fall within the spirit and broad scope of the appended claims.

On to `CN1C(=O)CN=C(c2ccccc2)c2cc(Cl)ccc21` [Diazepam], for which the rate of absorption entry is listed as “relatively quickly absorbed”.
